# Values quoted from earlier work as cited in US20230192715A1 (priority 2020, published 2023).
# Read-outs that look alike come from different tables or passages of the source.
# Test system: NE or 5-HT re-uptake
# Conditions: Codd et al., 1995, cited from earlier work
Compound,action as NE or 5-HT re-uptake inhibitor,action as NE or 5-HT re-uptake inhibitor (listed as Dextromorphine)
CN1CC[C@@]23c4c5ccc(O)c4O[C@@H]2[C@H](O)C=C[C@@H]3[C@@H]1C5 [Levomorphine],no action as a NE or 5-HT re-uptake inhibitor,
CN1CC[C@@]23c4c5ccc(O)c4O[C@@H]2[C@H](O)C=C[C@@H]3[C@@H]1C5 [d-Morphine],,no actions as a NE or 5-HT re-uptake inhibitor
